At least one structure is not confirmed: it was looked up by name or label, or the drawing left a doubt.
Test system: Nontransgenic 3-week-old corn seedlings
Experiment: Titration of selective agents with cotton rolls tied to the whorl
Type: in vivo, corn (Zea mays)
Details: 25, 50, 75 and 100 mg/mL in 0.03% SILWET L-77; cotton rolls removed two days later
Protocol: Nontransgenic 3-week-old corn seedlings were assayed in order to determine the quantity of selective agent necessary in order to obtain a response. […] Cotton rolls were saturated with solutions consisting of 0.03% SILWET L-77 and various concentrations of each of these three antibiotics individually and tied to the whorl of plants to be tested.
The concentrations of genenticin tested were 25 mg/mL, 50 mg/mL, 75 mg/mL, and 100 mg/mL.

CN[C@@H]1[C@@H](O)[C@@H](O[C@@H]2[C@@H](O)[C@H](O[C@H]3O[C@H]([C@@H](C)O)[C@@H](O)[C@H](O)[C@H]3N)[C@@H](N)C[C@H]2N)OC[C@]1(C)O [genenticin]
bleaching and necrosis in treated plant leaves: None of these treatments gave a clearly defined response
